## Library screening results

Data taken from ChEMBL document CHEMBL3988442, “University of Dundee, Small-Polar-MMV Screening Library” (2021).

Each number is a percent effect as filed. The controls that fix the scale are not given in the record; negative values are as filed. Compounds were drawn at random from those tested, without regard to their results. Two or more numbers in one place are separate tests of the same structure; such repeats can differ widely.

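Viability assay of Plasmodium falciparum sporozoites; the read-out is not stated. The concentration is filed as 10 mM, unlikely as a test dose, so the dose is not known. Direction is inferred from retests: higher values go with lower viability. Strong results were mostly tested again. Size under these conditions: about 34,000 compounds, about 280 of them at 50% or above in at least one test.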

* Cn1cc(CN2CCCC3(CCN(C(=O)c4cnccn4)C3)C2)cn1.O=C(O)C(F)(F)F.O=C(O)C(F)(F)F (stereo not drawn) | -2.694%
* COc1ccc(CN2CCN(C(C)=O)CC3(CC(=O)N(C)C3)C2)cc1.O=C(O)C(F)(F)F (stereo not drawn) | 6.785%
* COCC1CN(C(=O)CC2Cc3ccccc3C2)Cc2c1cnn2C (stereo not drawn) | 2.865%
* CC(C)[C@H](NS(C)(=O)=O)C(=O)NCc1cc(-c2ccco2)n[nH]1 | -4.657%
* CC(C)(C)c1n[nH]c(C2CN(C(=O)CCc3cscn3)CCO2)n1 (stereo not drawn) | -3.704%
* COCCOc1ccc(NC(=O)N(C)Cc2ccsc2)cn1 | 1.562%
* COCCC1COC2(CCN(C(=O)c3ccncc3)CC2)C1.O=C(O)C(F)(F)F (stereo not drawn) | 5.756%
* Cc1c(CC(=O)N2CCN(C(C)C)CC2)nnn1-c1ccccc1 | -23% & -19.55%
* CCN1CC(C(=O)N(C)Cc2ccon2)CC1=O (stereo not drawn) | 7.382%
* O=C(Nc1ccccc1OC(F)F)C1=NN(c2ccccc2)C(=O)CN1 | 8.141%
* CCc1ncc(C(=O)N2CCCCC2Cn2cccn2)s1 (stereo not drawn) | -13.78%
* CC(C)(C)CN(CCC#N)C(=O)c1cccc(CC#N)c1 | -8.218%
* Cn1nc(C2CCCN(C(=O)CO)C2)cc1O (stereo not drawn) | -3.199%
* CN(C)C(=O)c1cnc2n1CCN(Cc1ccc3c(c1)OCO3)C2.O=C(O)C(F)(F)F | 12.46%
* O=C(Cc1cccc(O)c1)N1CCCC(O)(CN2CCOCC2)CC1 (stereo not drawn) | 7.493%
* CC1(C)CN(CC(O)C(C)(C)C)C(=O)CN(C(=O)c2ccccc2)C1 (stereo not drawn) | 17.13%
* CC(C)C(C)NC(=O)Nc1ccc(CC(N)=O)cc1 (stereo not drawn) | -17.16% & 28.92% & -22%
* O=C(NCCn1ccnc1)c1ccn(-c2ccc(F)cc2)n1 | -3.501%
* CC(C)(C)c1cc(C(=O)NCCn2nc3ccccn3c2=O)[nH]n1 | -0.7455%
* CC(Oc1ccccc1C(F)(F)F)C(=O)NCC(N)=O (stereo not drawn) | 18.71%
* O=C(O)c1ccccc1CN1CCCC(Cc2ccn[nH]2)C1 (stereo not drawn) | 16.45%
* Cc1ccc(-c2nnc(CN3CCn4c(nnc4C4CC4)C3)o2)cc1 | -8.281%
* CC(=O)N1CCOC2(CCN(C(=O)c3cnoc3C)CC2)C1 | -20.25%
* Cn1ccc2cc(C(=O)N3CCOCC3)ccc21 | -29.22%
* COc1ccc(C(O)CNC(=O)NCc2c(C)cc(C)[nH]c2=O)cc1 (stereo not drawn) | -4.937%
* c1cncc(CCc2nc(C3CC3)nn2-c2ccc3c(c2)OCCO3)c1 | 41.36% & 42.97%
* COc1ccc(C(=O)N2CCC(Nc3cccnn3)CC2)c(F)c1 | 1.413%
* Cc1cc(C)nc(N(C)CCN(C)C2CCCC2)n1 | -31.91% & -19.08%
* CCN1Cc2ccccc2CC2(CCN(C(=O)N(C)C)CC2)C1=O | 1.56%
* O=C(c1cccc(C(F)(F)F)c1)N1CC(=O)N(C2CCC2)CC(O)C1 (stereo not drawn) | -26.7%
* Cc1ncsc1C(=O)N(Cc1ccccn1)C1CC1 | 3.614%
* CCCNCC1(O)CCCN(Cc2cccc(C)c2)C1=O (stereo not drawn) | -10.51%
* O=C(CCn1ccc2cc(Br)ccc21)/N=c1\[nH]nc(C2CCCO2)s1 (stereo not drawn) | -13.46%
* Cc1cccc(Nc2nccnc2C2CCCN(CC(=O)N(C)C)C2)n1 (stereo not drawn) | 4.997%
* CCC(CN1CCOCC1)n1cncc1-c1ccc2c(c1)CCCN2C.Cl (stereo not drawn) | 6.845%
* Cn1cc(CN2CCC3(CC2)CC(c2ccncc2)C(=O)N3)cn1.O=C(O)C(F)(F)F.O=C(O)C(F)(F)F (stereo not drawn) | -13.31%
* CCc1nc(NCC2CCCN(C(=O)C3CC3)C2)c2cnn(C)c2n1 (stereo not drawn) | -8.516%
* O=C(c1cnc(-c2cnccn2)s1)N1CCCC(n2cccn2)C1 (stereo not drawn) | 6.321%
* COCc1ccc(C(=O)N2CC[C@H](O)[C@@H](n3ccnc3)CC2)cc1 | 2.398%
* Cn1ccnc1CCNC(=O)C1CCCN(Cc2cccc(F)c2)C1 (stereo not drawn) | -11.96%
* COc1ccccc1C1(O)CCCN(C(=O)c2ccnn2C(C)C)C1 (stereo not drawn) | 5.243%
* Cc1noc(CN(C)CC(c2cccs2)N2CCOCC2)n1 (stereo not drawn) | 26.09%
* Fc1ccc(-c2nc(CN3CCOC(Cn4cccn4)C3)co2)cc1 (stereo not drawn) | 3.663%
* Cc1nc(C)n(CC2CCCN2Cc2ccn(-c3ccccc3)n2)n1 (stereo not drawn) | 10.67%
* CCCN(C)c1ncc2c(n1)N(C)CCN(CC1CC1)C2=O | -5.334%
* O=C(NCCNc1ncccn1)N1CC=C(c2ccccc2)CC1 | 4.3%
* Cc1cc(=O)n2nc(Oc3cc(Cl)cc(Cl)c3)sc2n1 | -1.432%
* Cn1cc(CN2CCCC(Cn3cc(CCCO)nn3)C2)cn1 (stereo not drawn) | -2.315%
* Cc1nc(CN2CCN(CC(=O)Nc3c(C)cccc3C)CC2)no1 | -8.092%
* CCc1ccc(C(C)NCc2nccn2Cc2ccccc2)o1 (stereo not drawn) | -5.379%
* COCCCn1ccnc1-c1cnc(OC)nc1 | -13.29%
* CC(C)c1noc(CCC(=O)N2CCCC(n3ccnc3)C2)n1 (stereo not drawn) | 6.505%
* Cc1sc2c(C3CCCN(S(C)(=O)=O)C3)nc(C)n2c1C (stereo not drawn) | 13.33%
* CC(C)N1CCC(Cc2cncc(-c3cccc(C(=O)O)c3)n2)CC1 | -1.133%
* COCc1ccc(C(=O)N2CCN(CC(C)O)CC2)cc1 (stereo not drawn) | -0.6807%

Repeated from the top, 6 entries:

| SMILES | Percent Effect |
|---|---|
| `Cn1cc(CN2CCCC3(CCN(C(=O)c4cnccn4)C3)C2)cn1.O=C(O)C(F)(F)F.O=C(O)C(F)(F)F` (stereo not drawn) | -2.694 |
| `COc1ccc(CN2CCN(C(C)=O)CC3(CC(=O)N(C)C3)C2)cc1.O=C(O)C(F)(F)F` (stereo not drawn) | 6.785 |
| `COCC1CN(C(=O)CC2Cc3ccccc3C2)Cc2c1cnn2C` (stereo not drawn) | 2.865 |
| `CC(C)[C@H](NS(C)(=O)=O)C(=O)NCc1cc(-c2ccco2)n[nH]1` | -4.657 |
| `CC(C)(C)c1n[nH]c(C2CN(C(=O)CCc3cscn3)CCO2)n1` (stereo not drawn) | -3.704 |
| `COCCOc1ccc(NC(=O)N(C)Cc2ccsc2)cn1` | 1.562 |